Laboratory results published in patent US8431596B2 (Cancer Research Technology Limited, priority 2007, dated 2013).

Key:
[1] = molecular target: T1, AXL (human catalytic domain) (Homo sapiens, UniProt P30530); assay: AXL (human catalytic domain) Enzyme Activity Assay (IMAP fluorescence polarisation); type: biochemical
T1 construct: purchased Upstate Ltd. 14-512
T1 sequence (P30530 473-894): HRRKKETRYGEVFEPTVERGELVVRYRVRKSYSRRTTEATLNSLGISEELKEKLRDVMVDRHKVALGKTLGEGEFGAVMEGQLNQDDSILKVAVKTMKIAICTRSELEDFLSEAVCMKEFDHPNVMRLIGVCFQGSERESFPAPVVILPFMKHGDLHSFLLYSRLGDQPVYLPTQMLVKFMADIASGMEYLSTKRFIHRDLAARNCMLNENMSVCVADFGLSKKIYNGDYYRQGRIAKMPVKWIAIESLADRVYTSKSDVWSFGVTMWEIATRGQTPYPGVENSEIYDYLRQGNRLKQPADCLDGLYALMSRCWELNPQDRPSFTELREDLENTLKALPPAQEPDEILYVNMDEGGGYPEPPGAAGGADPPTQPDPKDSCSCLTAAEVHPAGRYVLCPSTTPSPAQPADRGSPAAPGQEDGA
Procedure: Biological Methods AXL (human catalytic domain) Enzyme Activity Assay Reagents
Kinase Assay Reaction Buffer: This consisted of 20 mM HEPES pH 7.0, 10 mM MgCl2, 1 mM DTT, […], 0.01% Triton X100 (v/v), and 0.01% BSA (w/v). All buffer components were purchased from Sigma-Aldrich at reagent grade or higher.
Kinase: Recombinant AXL isoform 1 (aa473-894 corresponding to Genbank Accession Number NP 068713) at 2 mg/mL (20.8 μM) was purchased from Upstate Ltd. (Product code 14-512, lot #28164U). The enzyme was stored at −80° C. and a working stock was prepared to a concentration of 30 nM by diluting 20.8 μM stock 1:693 in cold (4° C.) 1× Reaction Buffer. […]
ATP: Supplied by Sigma (product code A-7699). […] Final ATP concentration in the assay was 150 μM; this concentration represents the KM.ATP for this enzyme calculated in this assay. […]
1 μL samples of test compounds in 10% DMSO/water were added to “test” wells by dry-spotting using a Matrix Platemate Plus. […] The FP on a Tecan Ultra Plate reader was recorded as a single read at Ex485 Em535.
Percentage inhibition was calculated based on activity of the test sample minus the average values in the blank wells relative to the average values measured in control wells minus the average values in the blank wells.
IC50 values were calculated from 10 point dose sigmoid ‘dose-response’ curves using XIfit software (IDBS Inc, USA). […]

[2] = test system: Axl activation via the downstream phosphorylation of Akt (serine 473); assay: AXL Inhibition Cell Based ELISA Assay (FACE kit, Gas6-stimulated MDA-MB-231 cells); conditions: Homo sapiens, first data set, Gas6 200 ng/ml, pS473 Akt
Procedure: AXL Inhibition Cell Based ELISA Assay
This cell based ELISA assay is a simple cell-based method used to monitor activation of proteins by phosphorylation. The Active Motif, Fast Activated Cell-based ELISA (FACE) kit (Active Motif Cat No: 48120) was used in this case to monitor the inhibition, by test compounds, of Axl activation via the downstream phosphorylation of Akt (serine 473). In this system, cells are cultured in 96 well plates and treated with test compounds and Axl is activated by the introduction of Gas6 (Axl ligand). The inhibition of Axl can be directly assessed via the reduction of pS^473 Akt levels.
Active Motif FACE Kit reagents (Active Motif Cat. No: 48120(AKT)).
10% hydrogen peroxide (Sigma H1009).
10% Sodium azide (Sigma 7128).
37% Formaldehyde (Sigma F8775).
Axl/Fc conjugate (R&D Systems 154-AL).
Recombinant mouse Gas6 (R&D Systems 986-GS-025).
All cell incubations were carried out in humidified incubators set at 5% CO2 and 37° C. […]
Immunostaining (carried out as outlined in FACE kit protocol). […] 100 μL developing solution was added to each well and monitored for colour change to medium to dark blue (2 to 20 minutes). 100 μL of stop solution was then added and absorbance was read at 450 nm within 5 minutes of addition.
Crystal Violet cell staining. After reading absorbance at 450 nm, the plates were washed twice with 200 μL wash buffer and twice with 200 μL PBS. […]

## COc1ccc(-c2nccc3nc(Nc4ccc(OCCN5CCCC5)cc4)nn23)cc1 [YY-001, [5-(4-Methoxy-phenyl)-[1,2,4]triazolo[1,5-c]pyrimidin-2-yl]-[4-(2-pyrrolidin-1-yl-ethoxy)-phenyl]-amine]
[1]; first data set, recombinant AXL isoform 1 aa473-894, 150 μM ATP
  IC50: < 1000 nM
[1]; further data set (WW-001 through WW-169, XX-001 through XX-469, YY-001 through YY-016, ZZ-001 through ZZ-003), 150 μM ATP
  IC50: 100 to 1000 nM
[2]
  IC50: 3000 nM
